Test results from the supplement of paper PMC10849652.
The list shows a part of the results.

The chains behind the UniProt entries cited, without tags or fusion partners. Where a name states a change or a piece, a line headed by the entry shows the natural chain unless it says otherwise.
UniProt P20338: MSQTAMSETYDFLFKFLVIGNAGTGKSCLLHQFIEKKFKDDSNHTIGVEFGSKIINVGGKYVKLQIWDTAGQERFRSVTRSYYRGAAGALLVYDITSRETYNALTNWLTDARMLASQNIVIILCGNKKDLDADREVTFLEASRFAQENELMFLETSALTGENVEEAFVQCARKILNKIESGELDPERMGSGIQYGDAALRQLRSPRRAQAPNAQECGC
UniProt Q9H0H5: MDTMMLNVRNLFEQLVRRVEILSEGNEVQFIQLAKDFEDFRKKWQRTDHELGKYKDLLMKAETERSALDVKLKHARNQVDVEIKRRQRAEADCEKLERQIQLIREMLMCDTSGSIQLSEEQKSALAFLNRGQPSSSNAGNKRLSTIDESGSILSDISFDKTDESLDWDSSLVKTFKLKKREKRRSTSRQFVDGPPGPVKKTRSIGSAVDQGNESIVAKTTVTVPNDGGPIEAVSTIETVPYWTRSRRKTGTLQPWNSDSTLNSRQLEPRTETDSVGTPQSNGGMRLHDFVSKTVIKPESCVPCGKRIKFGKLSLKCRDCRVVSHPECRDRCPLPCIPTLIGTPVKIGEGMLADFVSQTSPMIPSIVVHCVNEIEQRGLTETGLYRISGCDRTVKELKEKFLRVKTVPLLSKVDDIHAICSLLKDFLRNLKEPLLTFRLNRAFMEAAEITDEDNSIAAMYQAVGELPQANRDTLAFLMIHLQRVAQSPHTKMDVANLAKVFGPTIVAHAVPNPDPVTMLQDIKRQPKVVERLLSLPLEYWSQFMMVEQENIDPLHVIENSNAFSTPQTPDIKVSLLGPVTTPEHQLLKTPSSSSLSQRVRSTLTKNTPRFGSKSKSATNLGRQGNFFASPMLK
UniProt Q6GYQ0: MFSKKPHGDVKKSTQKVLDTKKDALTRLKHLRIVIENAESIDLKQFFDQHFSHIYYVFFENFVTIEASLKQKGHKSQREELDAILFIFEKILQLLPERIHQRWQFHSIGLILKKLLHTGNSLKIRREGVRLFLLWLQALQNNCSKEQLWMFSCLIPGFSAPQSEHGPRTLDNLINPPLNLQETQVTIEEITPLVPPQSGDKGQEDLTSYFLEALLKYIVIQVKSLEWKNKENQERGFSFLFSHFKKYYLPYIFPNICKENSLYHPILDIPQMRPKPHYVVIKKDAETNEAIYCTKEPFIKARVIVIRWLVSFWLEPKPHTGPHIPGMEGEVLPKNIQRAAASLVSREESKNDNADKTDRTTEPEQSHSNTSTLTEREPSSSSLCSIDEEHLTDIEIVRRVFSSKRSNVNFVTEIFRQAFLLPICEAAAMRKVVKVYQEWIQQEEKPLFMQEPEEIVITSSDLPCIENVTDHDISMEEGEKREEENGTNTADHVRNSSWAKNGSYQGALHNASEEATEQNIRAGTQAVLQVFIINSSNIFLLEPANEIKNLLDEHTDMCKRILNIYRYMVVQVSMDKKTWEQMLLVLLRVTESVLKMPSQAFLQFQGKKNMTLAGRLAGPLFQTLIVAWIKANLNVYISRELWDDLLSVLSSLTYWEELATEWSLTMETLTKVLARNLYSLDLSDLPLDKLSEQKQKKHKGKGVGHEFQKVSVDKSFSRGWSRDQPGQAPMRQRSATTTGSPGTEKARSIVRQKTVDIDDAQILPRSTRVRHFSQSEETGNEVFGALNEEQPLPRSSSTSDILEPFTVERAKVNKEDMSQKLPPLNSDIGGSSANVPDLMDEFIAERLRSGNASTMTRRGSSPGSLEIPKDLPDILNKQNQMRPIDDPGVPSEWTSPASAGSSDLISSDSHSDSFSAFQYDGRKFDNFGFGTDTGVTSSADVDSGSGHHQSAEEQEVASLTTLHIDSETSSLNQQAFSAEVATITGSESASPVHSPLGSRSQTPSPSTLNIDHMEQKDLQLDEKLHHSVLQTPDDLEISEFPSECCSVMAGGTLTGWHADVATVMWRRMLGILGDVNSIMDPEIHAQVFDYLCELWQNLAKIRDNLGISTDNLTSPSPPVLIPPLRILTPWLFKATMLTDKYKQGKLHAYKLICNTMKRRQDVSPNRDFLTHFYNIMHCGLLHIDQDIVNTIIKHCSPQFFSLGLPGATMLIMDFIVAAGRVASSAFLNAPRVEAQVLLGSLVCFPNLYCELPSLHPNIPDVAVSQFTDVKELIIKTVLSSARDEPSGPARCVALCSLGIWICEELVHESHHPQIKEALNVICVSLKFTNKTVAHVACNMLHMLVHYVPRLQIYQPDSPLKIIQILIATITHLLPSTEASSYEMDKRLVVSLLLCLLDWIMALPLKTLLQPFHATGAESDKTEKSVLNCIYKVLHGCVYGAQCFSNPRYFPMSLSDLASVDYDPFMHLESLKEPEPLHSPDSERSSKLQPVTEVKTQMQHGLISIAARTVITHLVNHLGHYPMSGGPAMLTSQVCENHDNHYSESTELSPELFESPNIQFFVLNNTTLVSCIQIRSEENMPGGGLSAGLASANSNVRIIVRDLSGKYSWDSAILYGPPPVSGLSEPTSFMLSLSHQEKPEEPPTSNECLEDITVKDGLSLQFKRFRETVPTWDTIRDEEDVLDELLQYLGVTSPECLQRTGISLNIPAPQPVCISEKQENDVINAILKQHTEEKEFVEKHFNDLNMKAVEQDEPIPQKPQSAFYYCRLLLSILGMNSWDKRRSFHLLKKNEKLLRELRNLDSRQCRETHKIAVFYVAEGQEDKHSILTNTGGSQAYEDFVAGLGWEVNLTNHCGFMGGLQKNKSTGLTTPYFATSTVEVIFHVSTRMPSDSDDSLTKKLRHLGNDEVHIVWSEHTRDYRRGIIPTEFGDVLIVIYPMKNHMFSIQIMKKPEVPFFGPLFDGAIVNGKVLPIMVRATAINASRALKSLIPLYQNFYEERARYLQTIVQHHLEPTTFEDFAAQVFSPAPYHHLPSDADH
UniProt Q09028, whole entry, looked up: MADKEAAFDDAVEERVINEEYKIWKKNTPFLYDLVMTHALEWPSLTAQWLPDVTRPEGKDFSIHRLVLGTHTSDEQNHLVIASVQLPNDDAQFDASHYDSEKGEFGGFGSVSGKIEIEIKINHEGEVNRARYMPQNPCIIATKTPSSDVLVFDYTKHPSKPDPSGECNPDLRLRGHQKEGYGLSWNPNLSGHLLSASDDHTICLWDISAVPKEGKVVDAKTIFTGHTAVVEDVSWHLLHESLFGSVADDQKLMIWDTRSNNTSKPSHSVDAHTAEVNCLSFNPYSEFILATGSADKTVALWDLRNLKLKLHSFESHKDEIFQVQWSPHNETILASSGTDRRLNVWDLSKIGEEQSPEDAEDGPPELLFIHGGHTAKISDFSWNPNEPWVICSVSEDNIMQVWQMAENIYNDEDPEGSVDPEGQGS
UniProt P98175: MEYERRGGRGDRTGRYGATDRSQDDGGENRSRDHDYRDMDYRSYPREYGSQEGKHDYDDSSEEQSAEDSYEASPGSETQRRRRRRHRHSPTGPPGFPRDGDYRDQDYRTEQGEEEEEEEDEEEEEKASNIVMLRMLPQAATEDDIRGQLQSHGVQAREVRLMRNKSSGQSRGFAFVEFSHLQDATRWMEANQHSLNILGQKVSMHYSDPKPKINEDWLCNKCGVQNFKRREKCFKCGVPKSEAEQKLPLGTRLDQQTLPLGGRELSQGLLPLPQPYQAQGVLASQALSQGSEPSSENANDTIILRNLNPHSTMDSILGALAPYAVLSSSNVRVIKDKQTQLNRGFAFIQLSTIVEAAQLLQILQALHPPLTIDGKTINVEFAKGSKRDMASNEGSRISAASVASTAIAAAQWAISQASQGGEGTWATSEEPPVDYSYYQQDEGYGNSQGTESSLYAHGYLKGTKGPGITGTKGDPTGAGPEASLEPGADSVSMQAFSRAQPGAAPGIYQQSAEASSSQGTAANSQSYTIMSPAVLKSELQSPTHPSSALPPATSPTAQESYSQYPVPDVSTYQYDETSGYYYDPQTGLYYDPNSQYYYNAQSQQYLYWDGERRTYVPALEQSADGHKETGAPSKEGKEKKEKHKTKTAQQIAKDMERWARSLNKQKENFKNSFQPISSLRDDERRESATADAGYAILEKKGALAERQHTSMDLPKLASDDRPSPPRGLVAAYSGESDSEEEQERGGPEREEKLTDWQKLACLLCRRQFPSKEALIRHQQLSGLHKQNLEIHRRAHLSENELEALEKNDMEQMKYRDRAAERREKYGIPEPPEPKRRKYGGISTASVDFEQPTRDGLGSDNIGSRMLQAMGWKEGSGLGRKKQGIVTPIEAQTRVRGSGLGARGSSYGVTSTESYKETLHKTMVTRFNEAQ
UniProt Q9NW64: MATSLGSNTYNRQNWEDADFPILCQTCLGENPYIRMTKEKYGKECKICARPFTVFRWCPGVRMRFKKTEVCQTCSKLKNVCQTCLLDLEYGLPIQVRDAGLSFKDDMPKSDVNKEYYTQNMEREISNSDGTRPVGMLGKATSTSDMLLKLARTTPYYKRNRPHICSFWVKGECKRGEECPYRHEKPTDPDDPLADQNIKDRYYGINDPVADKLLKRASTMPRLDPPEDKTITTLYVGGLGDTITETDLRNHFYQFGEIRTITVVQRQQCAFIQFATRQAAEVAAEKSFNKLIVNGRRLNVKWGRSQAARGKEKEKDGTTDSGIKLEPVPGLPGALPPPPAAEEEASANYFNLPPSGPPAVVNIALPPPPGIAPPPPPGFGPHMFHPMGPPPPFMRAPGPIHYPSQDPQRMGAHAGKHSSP
UniProt Q86YS6: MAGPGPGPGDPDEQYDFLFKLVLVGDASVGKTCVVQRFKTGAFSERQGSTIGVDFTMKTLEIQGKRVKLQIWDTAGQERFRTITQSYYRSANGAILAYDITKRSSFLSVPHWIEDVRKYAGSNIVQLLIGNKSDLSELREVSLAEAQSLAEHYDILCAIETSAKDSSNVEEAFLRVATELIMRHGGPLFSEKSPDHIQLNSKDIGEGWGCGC
UniProt P61019: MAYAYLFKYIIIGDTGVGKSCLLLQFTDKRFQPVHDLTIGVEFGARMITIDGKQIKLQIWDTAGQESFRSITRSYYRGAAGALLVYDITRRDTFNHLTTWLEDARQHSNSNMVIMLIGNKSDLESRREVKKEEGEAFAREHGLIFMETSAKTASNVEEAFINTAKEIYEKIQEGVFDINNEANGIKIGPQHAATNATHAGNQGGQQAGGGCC

How the values were obtained:
Test in all cases: log2 fold change, soluble protein after heating vs DMSO (PISA); higher = thermal stabilisation; K562 cells, 10 uM, 30 min; active = over 0.2 and 3.5 SD of the protein, either way, in both replicates (recomputed)
[1] = compound: C1=CC=C(C=C1)[C@H](COC2=CC3=C(C=C2)NC(=O)N3)NC(=O)C4=CC=CN(C4=O)CC5=CC(=C(C=C5)F)F
In short: (§1)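 Soluble protein was defined as the supernatant after 21,000xg for 90 min. It came from K562 cells at 2×10^6 cells/mL given 10 μM compound for 30 min, heated in aliquots for 3 min across 48°C-58°C, pooled, and extracted in PBS with 0.5% NP-40 at 4°C, and was quantified by TMTpro 16plex LC-MS/MS with equalised channel sums. Thermal stability against control samples, from duplicates, is reported as log2 fold change.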

[2] = compound: CC1=C(SC2=C1C(=N[C@H](C3=NN=C(N32)C)CC(=O)N)C4=CC=C(C=C4)Cl)C
In short: as §1

[3] = compound: CC1=C2C(=CC=C1)N=C(N(C2=O)C3=CC=CC=C3C)CN4C=NC5=C(N=CN=C54)N
In short: as §1

[4] = compound: Cc1sc2c(c1C)C(c1ccc(Cl)cc1)=N[C@@H](CC(=O)OC(C)(C)C)c1nnc(C)n1-2
In short: as §1

[5] = compound: c1ccc([C@@H]2C[C@H]2NC2CCNCC2)cc1
In short: as §1

Measured: log2 fold change

RAB4A (UniProt P20338)
inactive: [1] 0.055 | [2] 0.047 | [3] 0 | [4] 0.001 | [5] 0.008

RACGAP1 (UniProt Q9H0H5)
inactive: [1] -0.076 | [2] 0.066 | [3] 0.053 | [4] 0.103 | [5] -0.032

RALGAPA1 isoform 6 (UniProt Q6GYQ0)
inactive: [1] 0.012 | [2] -0.094 | [3] 0.1 | [4] 0.108 | [5] 0.063

RBBP4 (UniProt Q09028)
inactive: [1] -0.01 | [2] 0.013 | [3] 0.031 | [4] -0.046 | [5] 0.014

RBM10 isoform 5 (UniProt P98175)
inactive: [1] 0.015 | [2] -0.089 | [3] 0.01 | [4] 0.156 | [5] 0.038

RBM22 (UniProt Q9NW64)
inactive: [1] 0.033 | [2] -0.022 | [3] -0.013 | [4] 0.027 | [5] 0.049

RAB43 (UniProt Q86YS6)
inactive: [1] 0.039 | [2] 0.062 | [3] 0.209 | [4] 0.011 | [5] -0.027

RAB2A (UniProt P61019)
inactive: [1] 0.004 | [2] -0.044 | [3] 0.055 | [4] -0.02 | [5] 0.056
